Data from PMC4579573.
Positions count from the first letter of the chain named. No constants are given. Whether binding was seen depends on the method and setting. Binding can be weak; no strength is given. For some of these results: Where a sequence is shown, tags or fusion partners need not be part of it.

Experiments:
[1] = target: T1, CfBRCC36 (C. floridanus) (UniProt E2AXC7); test: SEC-MALS; complexes and subcomplexes purified from insect cells; size exclusion chromatography coupled to multi-angle light scattering (Figures S1B-E and S8E-G); both purified
T1 sequence: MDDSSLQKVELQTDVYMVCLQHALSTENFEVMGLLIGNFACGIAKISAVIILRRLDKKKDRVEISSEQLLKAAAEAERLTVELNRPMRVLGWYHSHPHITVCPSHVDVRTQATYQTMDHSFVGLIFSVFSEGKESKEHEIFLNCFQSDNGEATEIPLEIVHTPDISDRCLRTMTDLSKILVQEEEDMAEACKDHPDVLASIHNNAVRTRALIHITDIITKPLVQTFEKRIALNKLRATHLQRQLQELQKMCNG

[2] = target: T1, CfBRCC36 (C. floridanus); test: crystal structure; CfBRCC36–KIAA0157ΔC, seleno-methionine-SAD, two heterodimers in the asymmetric unit, 2.55 Å; both purified
[3] = target: T2, CfBRCC36 QSQ mutant (His94Gln + His96Gln) (C. floridanus) (UniProt E2AXC7); test: crystal structure; CfBRCC36(QSQ: H94Q + H96Q)–KIAA0157ΔC, 2.75 Å; both purified
T2 sequence: T1 sequence with H94Q, H96Q

binding [1]	binding [2]	binding [3]	Substance
binds			CfKIAA0157 (C. floridanus)
binds	binds	binds	CfKIAA0157ΔC (C. floridanus) (domain or fragment)
